In the experiment the target is T1, myc-tagged 14-3-3γ (human) (UniProt P61981).
T1 sequence: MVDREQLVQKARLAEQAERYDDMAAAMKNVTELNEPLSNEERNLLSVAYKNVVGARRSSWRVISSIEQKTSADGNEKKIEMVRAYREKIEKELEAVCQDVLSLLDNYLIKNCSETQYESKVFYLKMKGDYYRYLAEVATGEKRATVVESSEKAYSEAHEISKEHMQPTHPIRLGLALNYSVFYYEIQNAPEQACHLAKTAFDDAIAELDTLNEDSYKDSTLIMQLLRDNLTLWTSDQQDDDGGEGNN
Nature of the experiment: co-IP.

Results are given in words; binding and its absence hold for the method and conditions named. Binding seen in cells or lysates may run through a third protein. Some results given as binding are weak or reduced against the parent protein; the word gives no strength. Tags and fused reporters may be left off the sequences shown.

B1: SMAUG1-FLAG S168A (protein, UniProt Q9UPU9-1 1-718)
chain: MMFRDQVGVLAGWFKGWNECEQTVALLSLLKRVSQTQARFLQLCLEHSLADCAELHVLEREANSPGIINQWQQESKDKVISLLLTHLPLLKPGNLDAKVEYMKLLPKILAHSIEHNQHIEESRQLLSYALIHPATSLEDRSALAMWLNHLEDRTSTSFGGQNRGRSDAVDYGQTHYYHQRQNSDDKLNGWQNSRDSGICINASNWQDKSMGCENGHVPLYSSSSVPTTINTIGTSTSTILSGQAHHSPLKRSVSLTPPMNVPNQPLGHGWMSHEDLRARGPQCLPSDHAPLSPQSSVASSGSGGSEHLEDQTTARNTFQEEGSGMKDVPAWLKSLRLHKYAALFSQMTYEEMMALTECQLEAQNVTKGARHKIVISIQKLKERQNLLKSLERDIIEGGSLRIPLQELHQMILTPIKAYSSPSTTPEARRREPQAPRQPSLMGPESQSPDCKDGAAATGATATPSAGASGGLQPHQLSSCDGELAVAPLPEGDLPGQFTRVMGKVCTQLLVSRPDEENISSYLQLIDKCLIHEAFTETQKKRLLSWKQQVQKLFRSFPRKTLLDISGYRQQRNRGFGQSNSLPTAGSVGGGMGRRNPRQYQIPSRNVPSARLGLLGTSGFVSSNQRNTTATPTIMKQGRQNLWFANPGGSNSMPSRTHSSVQRTRSLPVHTSPQNMLMFQQPEFQLPVTEPDINNRLESLCLSMTEHALGDGVDRTSTI
Turning to B1, the binding entry was “binds”.

B2: SMAUG1-FLAG S254A (protein, UniProt Q9UPU9-1 1-718)
chain: MMFRDQVGVLAGWFKGWNECEQTVALLSLLKRVSQTQARFLQLCLEHSLADCAELHVLEREANSPGIINQWQQESKDKVISLLLTHLPLLKPGNLDAKVEYMKLLPKILAHSIEHNQHIEESRQLLSYALIHPATSLEDRSALAMWLNHLEDRTSTSFGGQNRGRSDSVDYGQTHYYHQRQNSDDKLNGWQNSRDSGICINASNWQDKSMGCENGHVPLYSSSSVPTTINTIGTSTSTILSGQAHHSPLKRSVALTPPMNVPNQPLGHGWMSHEDLRARGPQCLPSDHAPLSPQSSVASSGSGGSEHLEDQTTARNTFQEEGSGMKDVPAWLKSLRLHKYAALFSQMTYEEMMALTECQLEAQNVTKGARHKIVISIQKLKERQNLLKSLERDIIEGGSLRIPLQELHQMILTPIKAYSSPSTTPEARRREPQAPRQPSLMGPESQSPDCKDGAAATGATATPSAGASGGLQPHQLSSCDGELAVAPLPEGDLPGQFTRVMGKVCTQLLVSRPDEENISSYLQLIDKCLIHEAFTETQKKRLLSWKQQVQKLFRSFPRKTLLDISGYRQQRNRGFGQSNSLPTAGSVGGGMGRRNPRQYQIPSRNVPSARLGLLGTSGFVSSNQRNTTATPTIMKQGRQNLWFANPGGSNSMPSRTHSSVQRTRSLPVHTSPQNMLMFQQPEFQLPVTEPDINNRLESLCLSMTEHALGDGVDRTSTI
Regarding B2, the binding entry is “binds”.

B3: SMAUG1-FLAG S254/665A (protein, UniProt Q9UPU9-1 1-718)
chain: MMFRDQVGVLAGWFKGWNECEQTVALLSLLKRVSQTQARFLQLCLEHSLADCAELHVLEREANSPGIINQWQQESKDKVISLLLTHLPLLKPGNLDAKVEYMKLLPKILAHSIEHNQHIEESRQLLSYALIHPATSLEDRSALAMWLNHLEDRTSTSFGGQNRGRSDSVDYGQTHYYHQRQNSDDKLNGWQNSRDSGICINASNWQDKSMGCENGHVPLYSSSSVPTTINTIGTSTSTILSGQAHHSPLKRSVALTPPMNVPNQPLGHGWMSHEDLRARGPQCLPSDHAPLSPQSSVASSGSGGSEHLEDQTTARNTFQEEGSGMKDVPAWLKSLRLHKYAALFSQMTYEEMMALTECQLEAQNVTKGARHKIVISIQKLKERQNLLKSLERDIIEGGSLRIPLQELHQMILTPIKAYSSPSTTPEARRREPQAPRQPSLMGPESQSPDCKDGAAATGATATPSAGASGGLQPHQLSSCDGELAVAPLPEGDLPGQFTRVMGKVCTQLLVSRPDEENISSYLQLIDKCLIHEAFTETQKKRLLSWKQQVQKLFRSFPRKTLLDISGYRQQRNRGFGQSNSLPTAGSVGGGMGRRNPRQYQIPSRNVPSARLGLLGTSGFVSSNQRNTTATPTIMKQGRQNLWFANPGGSNSMPSRTHSSVQRTRALPVHTSPQNMLMFQQPEFQLPVTEPDINNRLESLCLSMTEHALGDGVDRTSTI
On to B3, for which the binding entry was “binds weakly”.

B4: SMAUG1-FLAG S254/580A (protein, UniProt Q9UPU9-1 1-718)
chain: MMFRDQVGVLAGWFKGWNECEQTVALLSLLKRVSQTQARFLQLCLEHSLADCAELHVLEREANSPGIINQWQQESKDKVISLLLTHLPLLKPGNLDAKVEYMKLLPKILAHSIEHNQHIEESRQLLSYALIHPATSLEDRSALAMWLNHLEDRTSTSFGGQNRGRSDSVDYGQTHYYHQRQNSDDKLNGWQNSRDSGICINASNWQDKSMGCENGHVPLYSSSSVPTTINTIGTSTSTILSGQAHHSPLKRSVALTPPMNVPNQPLGHGWMSHEDLRARGPQCLPSDHAPLSPQSSVASSGSGGSEHLEDQTTARNTFQEEGSGMKDVPAWLKSLRLHKYAALFSQMTYEEMMALTECQLEAQNVTKGARHKIVISIQKLKERQNLLKSLERDIIEGGSLRIPLQELHQMILTPIKAYSSPSTTPEARRREPQAPRQPSLMGPESQSPDCKDGAAATGATATPSAGASGGLQPHQLSSCDGELAVAPLPEGDLPGQFTRVMGKVCTQLLVSRPDEENISSYLQLIDKCLIHEAFTETQKKRLLSWKQQVQKLFRSFPRKTLLDISGYRQQRNRGFGQSNALPTAGSVGGGMGRRNPRQYQIPSRNVPSARLGLLGTSGFVSSNQRNTTATPTIMKQGRQNLWFANPGGSNSMPSRTHSSVQRTRSLPVHTSPQNMLMFQQPEFQLPVTEPDINNRLESLCLSMTEHALGDGVDRTSTI
Consider B4, for which the binding entry is “binds weakly”.

B5: SMAUG1-FLAG S168/254A (protein, UniProt Q9UPU9-1 1-718)
chain: MMFRDQVGVLAGWFKGWNECEQTVALLSLLKRVSQTQARFLQLCLEHSLADCAELHVLEREANSPGIINQWQQESKDKVISLLLTHLPLLKPGNLDAKVEYMKLLPKILAHSIEHNQHIEESRQLLSYALIHPATSLEDRSALAMWLNHLEDRTSTSFGGQNRGRSDAVDYGQTHYYHQRQNSDDKLNGWQNSRDSGICINASNWQDKSMGCENGHVPLYSSSSVPTTINTIGTSTSTILSGQAHHSPLKRSVALTPPMNVPNQPLGHGWMSHEDLRARGPQCLPSDHAPLSPQSSVASSGSGGSEHLEDQTTARNTFQEEGSGMKDVPAWLKSLRLHKYAALFSQMTYEEMMALTECQLEAQNVTKGARHKIVISIQKLKERQNLLKSLERDIIEGGSLRIPLQELHQMILTPIKAYSSPSTTPEARRREPQAPRQPSLMGPESQSPDCKDGAAATGATATPSAGASGGLQPHQLSSCDGELAVAPLPEGDLPGQFTRVMGKVCTQLLVSRPDEENISSYLQLIDKCLIHEAFTETQKKRLLSWKQQVQKLFRSFPRKTLLDISGYRQQRNRGFGQSNSLPTAGSVGGGMGRRNPRQYQIPSRNVPSARLGLLGTSGFVSSNQRNTTATPTIMKQGRQNLWFANPGGSNSMPSRTHSSVQRTRSLPVHTSPQNMLMFQQPEFQLPVTEPDINNRLESLCLSMTEHALGDGVDRTSTI
Consider B5, for which the binding entry is recorded as “binds weakly”.

B6: SMAUG1-FLAG S580/665A (protein, UniProt Q9UPU9-1 1-718)
chain: MMFRDQVGVLAGWFKGWNECEQTVALLSLLKRVSQTQARFLQLCLEHSLADCAELHVLEREANSPGIINQWQQESKDKVISLLLTHLPLLKPGNLDAKVEYMKLLPKILAHSIEHNQHIEESRQLLSYALIHPATSLEDRSALAMWLNHLEDRTSTSFGGQNRGRSDSVDYGQTHYYHQRQNSDDKLNGWQNSRDSGICINASNWQDKSMGCENGHVPLYSSSSVPTTINTIGTSTSTILSGQAHHSPLKRSVSLTPPMNVPNQPLGHGWMSHEDLRARGPQCLPSDHAPLSPQSSVASSGSGGSEHLEDQTTARNTFQEEGSGMKDVPAWLKSLRLHKYAALFSQMTYEEMMALTECQLEAQNVTKGARHKIVISIQKLKERQNLLKSLERDIIEGGSLRIPLQELHQMILTPIKAYSSPSTTPEARRREPQAPRQPSLMGPESQSPDCKDGAAATGATATPSAGASGGLQPHQLSSCDGELAVAPLPEGDLPGQFTRVMGKVCTQLLVSRPDEENISSYLQLIDKCLIHEAFTETQKKRLLSWKQQVQKLFRSFPRKTLLDISGYRQQRNRGFGQSNALPTAGSVGGGMGRRNPRQYQIPSRNVPSARLGLLGTSGFVSSNQRNTTATPTIMKQGRQNLWFANPGGSNSMPSRTHSSVQRTRALPVHTSPQNMLMFQQPEFQLPVTEPDINNRLESLCLSMTEHALGDGVDRTSTI
On to B6, for which the binding entry was “binds weakly”.

B7: SMAUG1-FLAG S665A (protein, UniProt Q9UPU9-1 1-718)
chain: MMFRDQVGVLAGWFKGWNECEQTVALLSLLKRVSQTQARFLQLCLEHSLADCAELHVLEREANSPGIINQWQQESKDKVISLLLTHLPLLKPGNLDAKVEYMKLLPKILAHSIEHNQHIEESRQLLSYALIHPATSLEDRSALAMWLNHLEDRTSTSFGGQNRGRSDSVDYGQTHYYHQRQNSDDKLNGWQNSRDSGICINASNWQDKSMGCENGHVPLYSSSSVPTTINTIGTSTSTILSGQAHHSPLKRSVSLTPPMNVPNQPLGHGWMSHEDLRARGPQCLPSDHAPLSPQSSVASSGSGGSEHLEDQTTARNTFQEEGSGMKDVPAWLKSLRLHKYAALFSQMTYEEMMALTECQLEAQNVTKGARHKIVISIQKLKERQNLLKSLERDIIEGGSLRIPLQELHQMILTPIKAYSSPSTTPEARRREPQAPRQPSLMGPESQSPDCKDGAAATGATATPSAGASGGLQPHQLSSCDGELAVAPLPEGDLPGQFTRVMGKVCTQLLVSRPDEENISSYLQLIDKCLIHEAFTETQKKRLLSWKQQVQKLFRSFPRKTLLDISGYRQQRNRGFGQSNSLPTAGSVGGGMGRRNPRQYQIPSRNVPSARLGLLGTSGFVSSNQRNTTATPTIMKQGRQNLWFANPGGSNSMPSRTHSSVQRTRALPVHTSPQNMLMFQQPEFQLPVTEPDINNRLESLCLSMTEHALGDGVDRTSTI
Take B7: the binding result is reported as “binds”.

B8: SMAUG1-FLAG S580A (protein, UniProt Q9UPU9-1 1-718)
chain: MMFRDQVGVLAGWFKGWNECEQTVALLSLLKRVSQTQARFLQLCLEHSLADCAELHVLEREANSPGIINQWQQESKDKVISLLLTHLPLLKPGNLDAKVEYMKLLPKILAHSIEHNQHIEESRQLLSYALIHPATSLEDRSALAMWLNHLEDRTSTSFGGQNRGRSDSVDYGQTHYYHQRQNSDDKLNGWQNSRDSGICINASNWQDKSMGCENGHVPLYSSSSVPTTINTIGTSTSTILSGQAHHSPLKRSVSLTPPMNVPNQPLGHGWMSHEDLRARGPQCLPSDHAPLSPQSSVASSGSGGSEHLEDQTTARNTFQEEGSGMKDVPAWLKSLRLHKYAALFSQMTYEEMMALTECQLEAQNVTKGARHKIVISIQKLKERQNLLKSLERDIIEGGSLRIPLQELHQMILTPIKAYSSPSTTPEARRREPQAPRQPSLMGPESQSPDCKDGAAATGATATPSAGASGGLQPHQLSSCDGELAVAPLPEGDLPGQFTRVMGKVCTQLLVSRPDEENISSYLQLIDKCLIHEAFTETQKKRLLSWKQQVQKLFRSFPRKTLLDISGYRQQRNRGFGQSNALPTAGSVGGGMGRRNPRQYQIPSRNVPSARLGLLGTSGFVSSNQRNTTATPTIMKQGRQNLWFANPGGSNSMPSRTHSSVQRTRSLPVHTSPQNMLMFQQPEFQLPVTEPDINNRLESLCLSMTEHALGDGVDRTSTI
As for B8, the binding entry is recorded as “binds”.

Source of the values: doi:10.1101/2023.02.09.527857.
